Measurements reported in the supplement of paper PMC10849652.
This is one part of the list.

Chains of the proteins cited; added tags and fusions are not shown. Lines headed by an entry give the natural chain unless they say otherwise; changes in a name come on top.
UniProt Q6P444: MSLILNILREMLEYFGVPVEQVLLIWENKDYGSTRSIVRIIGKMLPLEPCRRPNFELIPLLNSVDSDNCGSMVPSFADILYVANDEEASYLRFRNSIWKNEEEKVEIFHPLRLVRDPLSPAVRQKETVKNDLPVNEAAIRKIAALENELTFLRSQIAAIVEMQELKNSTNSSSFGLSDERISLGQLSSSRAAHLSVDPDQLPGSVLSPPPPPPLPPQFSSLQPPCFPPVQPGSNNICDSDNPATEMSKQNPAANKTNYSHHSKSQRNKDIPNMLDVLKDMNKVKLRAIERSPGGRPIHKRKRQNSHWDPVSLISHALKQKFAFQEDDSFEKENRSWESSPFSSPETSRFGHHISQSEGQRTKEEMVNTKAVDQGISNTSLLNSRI
UniProt Q96E11: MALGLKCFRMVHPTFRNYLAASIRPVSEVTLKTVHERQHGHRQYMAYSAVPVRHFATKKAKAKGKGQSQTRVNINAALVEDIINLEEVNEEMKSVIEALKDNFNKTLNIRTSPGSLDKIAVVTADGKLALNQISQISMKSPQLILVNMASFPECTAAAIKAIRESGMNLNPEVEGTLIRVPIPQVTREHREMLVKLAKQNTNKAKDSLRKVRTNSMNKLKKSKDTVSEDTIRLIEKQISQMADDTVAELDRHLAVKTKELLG
UniProt Q15390: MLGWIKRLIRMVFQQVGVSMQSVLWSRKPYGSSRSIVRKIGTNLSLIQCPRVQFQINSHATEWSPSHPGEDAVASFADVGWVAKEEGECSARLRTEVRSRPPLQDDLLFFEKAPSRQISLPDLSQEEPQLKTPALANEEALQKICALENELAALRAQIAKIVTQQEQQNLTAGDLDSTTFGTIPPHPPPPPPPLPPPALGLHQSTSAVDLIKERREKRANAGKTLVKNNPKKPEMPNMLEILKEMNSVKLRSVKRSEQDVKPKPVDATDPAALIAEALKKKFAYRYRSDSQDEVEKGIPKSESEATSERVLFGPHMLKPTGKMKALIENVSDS
UniProt P13640: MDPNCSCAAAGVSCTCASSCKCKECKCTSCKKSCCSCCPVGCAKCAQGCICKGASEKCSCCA
UniProt P00403, whole entry, looked up: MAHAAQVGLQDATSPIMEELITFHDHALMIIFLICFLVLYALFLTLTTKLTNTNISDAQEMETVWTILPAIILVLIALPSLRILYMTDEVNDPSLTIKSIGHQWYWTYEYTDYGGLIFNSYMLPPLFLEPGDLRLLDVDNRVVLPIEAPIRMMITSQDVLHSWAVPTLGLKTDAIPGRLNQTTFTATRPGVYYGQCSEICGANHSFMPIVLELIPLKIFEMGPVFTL
UniProt P03928: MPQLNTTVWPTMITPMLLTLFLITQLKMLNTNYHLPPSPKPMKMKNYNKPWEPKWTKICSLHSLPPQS
UniProt P20585: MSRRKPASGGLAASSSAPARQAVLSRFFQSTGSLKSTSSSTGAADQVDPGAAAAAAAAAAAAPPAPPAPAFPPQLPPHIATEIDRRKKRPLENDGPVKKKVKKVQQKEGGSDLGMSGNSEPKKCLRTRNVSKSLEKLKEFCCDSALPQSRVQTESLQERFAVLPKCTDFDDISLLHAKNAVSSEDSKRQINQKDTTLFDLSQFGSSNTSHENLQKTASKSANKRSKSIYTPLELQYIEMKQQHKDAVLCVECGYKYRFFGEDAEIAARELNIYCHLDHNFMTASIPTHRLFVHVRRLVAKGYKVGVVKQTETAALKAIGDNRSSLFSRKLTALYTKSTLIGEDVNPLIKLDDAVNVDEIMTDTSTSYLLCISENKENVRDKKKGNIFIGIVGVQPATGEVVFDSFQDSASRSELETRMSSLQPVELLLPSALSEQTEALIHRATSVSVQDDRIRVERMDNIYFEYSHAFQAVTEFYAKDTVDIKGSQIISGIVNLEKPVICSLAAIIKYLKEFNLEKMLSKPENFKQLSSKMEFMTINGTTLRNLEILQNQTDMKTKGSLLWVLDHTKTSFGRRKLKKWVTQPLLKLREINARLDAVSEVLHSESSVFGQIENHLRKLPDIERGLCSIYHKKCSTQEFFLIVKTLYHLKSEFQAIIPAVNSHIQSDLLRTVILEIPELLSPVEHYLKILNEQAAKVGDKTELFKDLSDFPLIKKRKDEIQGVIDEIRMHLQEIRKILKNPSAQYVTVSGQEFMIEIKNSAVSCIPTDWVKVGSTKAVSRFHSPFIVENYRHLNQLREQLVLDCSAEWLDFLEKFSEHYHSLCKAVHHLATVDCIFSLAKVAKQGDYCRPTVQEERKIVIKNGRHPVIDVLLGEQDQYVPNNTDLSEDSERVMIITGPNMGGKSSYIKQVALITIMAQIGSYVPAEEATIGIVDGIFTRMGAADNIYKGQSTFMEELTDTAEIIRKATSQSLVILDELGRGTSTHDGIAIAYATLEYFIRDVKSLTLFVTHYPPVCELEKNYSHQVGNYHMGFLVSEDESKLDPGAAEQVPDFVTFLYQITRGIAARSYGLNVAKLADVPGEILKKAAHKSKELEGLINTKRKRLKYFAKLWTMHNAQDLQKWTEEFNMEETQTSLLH
UniProt O75431: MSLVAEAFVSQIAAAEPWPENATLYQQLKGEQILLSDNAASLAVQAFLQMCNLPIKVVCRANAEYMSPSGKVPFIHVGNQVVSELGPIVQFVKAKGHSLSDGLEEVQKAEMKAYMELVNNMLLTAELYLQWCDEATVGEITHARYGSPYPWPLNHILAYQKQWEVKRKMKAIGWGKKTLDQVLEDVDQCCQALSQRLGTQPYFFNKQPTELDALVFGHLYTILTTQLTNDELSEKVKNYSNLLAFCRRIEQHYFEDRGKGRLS
MTHFD1, A0A384N5Y3, UniProt A0A384N5Y3, whole entry, looked up: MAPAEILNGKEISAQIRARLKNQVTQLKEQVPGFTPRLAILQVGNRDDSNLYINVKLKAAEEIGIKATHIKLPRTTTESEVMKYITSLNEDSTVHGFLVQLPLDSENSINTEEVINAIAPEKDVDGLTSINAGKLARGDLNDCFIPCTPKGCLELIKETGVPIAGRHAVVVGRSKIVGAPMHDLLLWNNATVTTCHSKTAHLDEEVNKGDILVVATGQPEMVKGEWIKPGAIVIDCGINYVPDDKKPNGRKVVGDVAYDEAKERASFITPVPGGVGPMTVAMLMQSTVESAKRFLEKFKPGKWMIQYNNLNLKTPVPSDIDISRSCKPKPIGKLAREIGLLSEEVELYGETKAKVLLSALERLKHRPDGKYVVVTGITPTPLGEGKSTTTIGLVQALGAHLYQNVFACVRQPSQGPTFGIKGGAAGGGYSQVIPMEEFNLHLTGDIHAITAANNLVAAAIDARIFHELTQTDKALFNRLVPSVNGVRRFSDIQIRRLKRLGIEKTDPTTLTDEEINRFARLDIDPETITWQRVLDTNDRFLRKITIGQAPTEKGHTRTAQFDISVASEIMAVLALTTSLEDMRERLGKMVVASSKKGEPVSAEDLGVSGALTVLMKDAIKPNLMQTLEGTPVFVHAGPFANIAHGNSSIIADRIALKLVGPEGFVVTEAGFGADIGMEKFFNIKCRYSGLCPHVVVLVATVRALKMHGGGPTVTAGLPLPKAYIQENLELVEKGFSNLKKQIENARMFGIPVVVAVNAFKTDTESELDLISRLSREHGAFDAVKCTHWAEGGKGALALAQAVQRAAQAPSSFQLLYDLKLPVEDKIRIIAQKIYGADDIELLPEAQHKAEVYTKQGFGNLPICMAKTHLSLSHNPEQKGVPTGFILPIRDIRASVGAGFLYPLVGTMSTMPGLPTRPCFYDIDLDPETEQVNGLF
UniProt Q2M296: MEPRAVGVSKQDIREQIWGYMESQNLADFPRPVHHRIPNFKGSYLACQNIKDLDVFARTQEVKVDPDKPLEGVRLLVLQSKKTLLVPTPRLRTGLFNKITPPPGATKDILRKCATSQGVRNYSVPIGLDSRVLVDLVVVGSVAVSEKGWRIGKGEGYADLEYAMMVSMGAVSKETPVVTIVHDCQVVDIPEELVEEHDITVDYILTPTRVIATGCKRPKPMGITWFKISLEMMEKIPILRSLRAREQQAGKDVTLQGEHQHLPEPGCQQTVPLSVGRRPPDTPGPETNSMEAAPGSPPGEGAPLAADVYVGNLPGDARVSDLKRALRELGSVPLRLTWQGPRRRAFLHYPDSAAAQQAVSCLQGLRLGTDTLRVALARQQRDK
UniProt Q9Y217: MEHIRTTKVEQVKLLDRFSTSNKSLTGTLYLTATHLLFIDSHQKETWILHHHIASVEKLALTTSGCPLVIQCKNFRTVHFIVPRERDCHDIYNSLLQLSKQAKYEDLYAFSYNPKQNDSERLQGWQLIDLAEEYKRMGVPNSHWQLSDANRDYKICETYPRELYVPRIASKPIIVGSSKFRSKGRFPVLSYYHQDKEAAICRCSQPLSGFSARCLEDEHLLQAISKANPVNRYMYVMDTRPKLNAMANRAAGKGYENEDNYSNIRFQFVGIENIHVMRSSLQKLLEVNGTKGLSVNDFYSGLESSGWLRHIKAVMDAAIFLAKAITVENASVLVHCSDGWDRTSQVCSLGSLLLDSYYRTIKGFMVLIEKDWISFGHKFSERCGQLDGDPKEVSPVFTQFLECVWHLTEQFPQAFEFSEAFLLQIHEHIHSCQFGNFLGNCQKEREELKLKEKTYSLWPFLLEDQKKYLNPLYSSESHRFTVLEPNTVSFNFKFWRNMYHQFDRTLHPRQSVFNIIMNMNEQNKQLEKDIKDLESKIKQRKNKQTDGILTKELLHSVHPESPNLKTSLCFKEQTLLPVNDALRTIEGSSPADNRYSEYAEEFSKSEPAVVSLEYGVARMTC
UniProt Q86UE4: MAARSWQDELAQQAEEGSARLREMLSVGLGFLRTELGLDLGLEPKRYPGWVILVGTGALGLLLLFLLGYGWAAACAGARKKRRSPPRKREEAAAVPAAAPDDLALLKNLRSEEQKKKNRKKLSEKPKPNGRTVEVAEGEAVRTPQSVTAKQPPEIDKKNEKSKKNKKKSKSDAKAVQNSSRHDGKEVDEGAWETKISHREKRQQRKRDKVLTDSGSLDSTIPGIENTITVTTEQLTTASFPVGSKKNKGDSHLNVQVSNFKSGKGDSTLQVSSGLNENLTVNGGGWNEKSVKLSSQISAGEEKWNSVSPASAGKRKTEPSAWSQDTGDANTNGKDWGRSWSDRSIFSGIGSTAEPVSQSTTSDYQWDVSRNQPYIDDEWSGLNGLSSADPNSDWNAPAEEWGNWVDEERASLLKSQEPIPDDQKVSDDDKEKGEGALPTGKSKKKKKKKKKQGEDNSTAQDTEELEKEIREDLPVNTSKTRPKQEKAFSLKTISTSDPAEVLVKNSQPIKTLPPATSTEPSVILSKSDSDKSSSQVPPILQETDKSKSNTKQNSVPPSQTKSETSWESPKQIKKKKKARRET
UniProt P82909: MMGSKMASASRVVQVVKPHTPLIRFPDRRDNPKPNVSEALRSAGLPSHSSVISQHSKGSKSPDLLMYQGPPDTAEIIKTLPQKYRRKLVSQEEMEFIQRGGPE

How the values were obtained:
Assay in all cases: log2 fold change, soluble protein after heating vs DMSO (PISA); higher = thermal stabilisation; K562 lysate, 10 uM; active = over 0.2 and 3.5 SD of the protein, either way, in both replicates (recomputed)
[1] = compound: CCCS(=O)(=O)Nc1ccc(F)c(C(=O)c2c[nH]c3ncc(-c4ccc(Cl)cc4)cc23)c1F [vemurafenib]
Summary of the method: (§1)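 Quantification was by TMTpro 16plex LC-MS/MS with equalised channel sums, applied to the supernatant after 21,000xg for 90 min. Samples were crude K562 extract at 1 mg/mL protein in PBS pH 7.4 with 1 mM MgCl2, treated with 10 μM compound for 30 min, heated for 3 min across 48°C-58°C, pooled and brought to 0.5% NP-40 at 4°C. Values are log-two fold changes in thermal stability relative to solvent controls, from duplicates.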

[2] = compound: CCCS(=O)(=O)Nc1ccc(F)c(C(=O)c2c[nH]c3ncc(Cl)cc23)c1F
Summary of the method: as §1

[3] = compound: CCN(CCCOc1ccc2c(Nc3cc(CC(=O)Nc4cccc(F)c4)[nH]n3)ncnc2c1)CCOP(=O)(O)O [barasertib]
Summary of the method: as §1

[4] = compound: CC[C@@H]1C(=O)N(C)c2cnc(Nc3ccc(C(=O)NC4CCN(C)CC4)cc3OC)nc2N1C1CCCC1
Summary of the method: as §1

[5] = compound: CC[C@@H]1C(=O)N(C)c2cnc(Nc3ccc(C(=O)N[C@H]4CC[C@H](N5CCN(CC6CC6)CC5)CC4)cc3OC)nc2N1C(C)C [volasertib]
Summary of the method: as §1

[6] = compound: CCn1c(C(=O)N(C2CC2)C2CC2)cc2c3c(ncn3C)c(Nc3cc(C)n(C)n3)nc21
Summary of the method: as §1

[7] = compound: CCn1cc(-c2ccnc3[nH]c(-c4cccc(CN(C)C)c4)cc23)c(-c2ccc(NC(=O)N(C)C)cc2)n1
Summary of the method: as §1

[8] = compound: CN1CCC(CNc2ccc3ncc(-c4cccc(OC(F)(F)F)c4)n3n2)CC1
Summary of the method: as §1

[9] = compound: CN1CCN(CCOc2cc(OC3CCOCC3)c3c(Nc4c(Cl)ccc5c4OCO5)ncnc3c2)CC1 [saracatinib]
Summary of the method: as §1

[10] = compound: CN1CCN(c2nc(C3=C(c4c[nH]c5ccccc45)C(=O)NC3=O)c3ccccc3n2)CC1 [sotrastaurin]
Summary of the method: as §1

[11] = compound: CN1CC[C@H](c2c(O)cc(O)c3c(=O)cc(-c4ccccc4Cl)oc23)[C@H](O)C1 [alvocidib]
Summary of the method: as §1

[12] = compound: CN1CCc2c(c3ccccc3n2Cc2ccc(C(=O)NO)cc2)C1 [Tubastatin A]
Summary of the method: as §1

[13] = compound: CNC(=O)C1=CC=CC=C1NC2=NC(=NC=C2Cl)NC3=C(C=C(C=C3)N4CCOCC4)OC
Summary of the method: as §1

[14] = compound: CNC(=O)c1ccc(Nc2ncc(C(F)(F)F)c(NCc3nccnc3N(C)S(C)(=O)=O)n2)cc1 [defactinib]
Summary of the method: as §1

[15] = compound: CNc1nc(-c2ccc3c(N)n[nH]c3c2)cc(N2C[C@@H](C(=O)NC3CCCCC3)CC[C@H]2C)n1
Summary of the method: as §1

[16] = compound: COC(=O)N[C@@H](C)CNc1nccc(-c2cn(C(C)C)nc2-c2cc(Cl)cc(NS(C)(=O)=O)c2F)n1 [encorafenib]
Summary of the method: as §1

[17] = compound: COC(=O)[C@H](CCSC)NC(=O)C1=C(C=C(C=C1)NC[C@H](CS)N)C2=CC=CC=C2
Summary of the method: as §1

[18] = compound: COc1cc(Nc2ncc3c(n2)-c2ccc(Cl)cc2C(c2c(F)cccc2OC)=NC3)ccc1C(=O)O [alisertib]
Summary of the method: as §1

[19] = compound: COc1cc2nc(-c3cc(F)ccc3O)nc(N[C@@H]3CNC[C@H]3C(C)(C)O)c2cc1OC
Summary of the method: as §1

[20] = compound: COc1cc2ncnc(Nc3ccc(F)c(Cl)c3)c2cc1OCCCN1CCOCC1 [gefitinib]
Summary of the method: as §1

Measured: log2 fold change

MTFR2 (UniProt Q6P444)
inactive: [1] 0.079 | [2] 0.116 | [3] 0.051 | [4] 0.003 | [5] -0.024 | [6] 0.039 | [7] 0.044 | [8] -0.264 | [9] 0.1 | [10] 0.03 | [11] 0.067 | [12] -0.117 | [13] 0.034 | [14] 0.01 | [15] -0.054 | [16] 0.008 | [17] -0.09 | [18] -0.034 | [19] 0.059 | [20] 0.054

MRRF (UniProt Q96E11)
inactive: [1] 0.025 | [2] 0.012 | [3] -0.019 | [4] 0.048 | [5] -0.013 | [6] -0.024 | [7] 0.009 | [8] 0.001 | [9] 0.012 | [10] -0.038 | [11] 0.068 | [12] 0.032 | [13] 0 | [14] 0.023 | [15] -0.02 | [16] -0.02 | [17] -0.133 | [18] 0.005 | [19] -0.021 | [20] 0.026

MTFR1 (UniProt Q15390)
inactive: [1] -0.032 | [2] 0.05 | [3] -0.01 | [4] 0.058 | [5] 0.036 | [6] -0.029 | [7] -0.044 | [8] -0.021 | [9] 0.015 | [10] -0.064 | [11] -0.022 | [12] -0.005 | [13] 0.039 | [14] -0.009 | [15] -0.01 | [16] 0.055 | [17] -0.072 | [18] -0.088 | [19] -0.096 | [20] -0.009

MRPS25 (UniProt P82663)
inactive: [1] -0.001 | [2] 0.141 | [3] 0.075 | [4] -0.093 | [5] 0.02 | [6] -0.002 | [7] 0.04 | [8] 0.026 | [9] -0.072 | [10] 0.015 | [11] 0.06 | [12] 0.012 | [13] 0.015 | [14] 0.072 | [15] 0.047 | [16] 0.008 | [17] 0.077 | [18] 0.028 | [19] -0.075 | [20] 0.116

Quoted from the listing (2 entries):
MRRF (UniProt Q96E11)
inactive: [1] 0.025 | [2] 0.012 | [3] -0.019 | [4] 0.048 | [5] -0.013 | [6] -0.024 | [7] 0.009 | [8] 0.001 | [9] 0.012 | [10] -0.038 | [11] 0.068 | [12] 0.032 | [13] 0 | [14] 0.023 | [15] -0.02 | [16] -0.02 | [17] -0.133 | [18] 0.005 | [19] -0.021 | [20] 0.026

MTFR1 (UniProt Q15390)
inactive: [1] -0.032 | [2] 0.05 | [3] -0.01 | [4] 0.058 | [5] 0.036 | [6] -0.029 | [7] -0.044 | [8] -0.021 | [9] 0.015 | [10] -0.064 | [11] -0.022 | [12] -0.005 | [13] 0.039 | [14] -0.009 | [15] -0.01 | [16] 0.055 | [17] -0.072 | [18] -0.088 | [19] -0.096 | [20] -0.009

The list goes on.

MT1G (UniProt P13640)
inactive: [1] -0.089 | [2] 0.023 | [3] -0.01 | [4] 0.044 | [5] 0.09 | [7] 0 | [8] -0.056 | [9] 0.038 | [10] -0.18 | [11] -0.016 | [13] 0.186 | [14] 0.023 | [15] 0.205 | [16] -0.016 | [17] -0.135 | [18] -0.077 | [19] -0.102 | [20] -0.118

MT-CO2 (UniProt P00403)
inactive: [1] -0.005 | [2] 0.055 | [3] -0.105 | [4] -0.034 | [5] -0.007 | [6] 0.005 | [7] 0.086 | [8] -0.065 | [9] 0.022 | [10] 0.007 | [11] 0.034 | [12] 0.004 | [13] 0.026 | [14] 0.032 | [15] 0.008 | [16] 0.07 | [17] -0.044 | [18] 0.011 | [19] -0.033 | [20] -0.025

MT-ATP8 (UniProt P03928)
inactive: [1] 0.033 | [2] -0.036 | [3] 0.057 | [4] 0.063 | [5] 0.015 | [6] 0.128 | [8] -0.144 | [10] -0.084 | [11] 0.044 | [12] 0.072 | [13] 0.08 | [14] 0.017 | [16] -0.071 | [17] -0.139 | [18] -0.017 | [19] -0.078 | [20] -0.081
active: [7] 0.711

MRPS21 (UniProt P82921)
inactive: [1] -0.103 | [2] 0.103 | [3] -0.032 | [4] -0.139 | [5] -0.156 | [7] -0.121 | [8] 0.052 | [9] -0.001 | [10] 0.085 | [11] -0.027 | [14] 0.056 | [15] 0.292 | [16] 0.019 | [17] -0.065 | [18] -0.089 | [19] -0.251 | [20] 0.025

MSH3 (UniProt P20585)
inactive: [1] -0.004 | [2] 0.048 | [3] -0.001 | [4] 0.036 | [5] -0.031 | [6] -0.034 | [7] -0.025 | [8] 0.031 | [9] 0.038 | [10] 0.039 | [11] 0.021 | [12] -0.004 | [13] 0.008 | [14] 0.023 | [15] 0.057 | [16] 0.02 | [17] -0.013 | [18] -0.027 | [19] 0.006 | [20] -0.012

MTX2 (UniProt O75431)
inactive: [1] -0.038 | [2] -0.003 | [3] 0.052 | [4] 0.024 | [5] -0.019 | [6] 0 | [7] 0.097 | [8] -0.004 | [9] 0.047 | [10] -0.059 | [11] 0.059 | [12] -0.016 | [13] 0.015 | [14] 0.008 | [15] 0.049 | [16] -0.012 | [17] -0.047 | [18] 0.007 | [19] -0.016 | [20] -0.02

MTHFD1, A0A384N5Y3
inactive: [1] 0.058 | [2] 0.011 | [3] 0.017 | [4] -0.06 | [5] -0.112 | [6] 0.059 | [7] 0.008 | [8] -0.053 | [9] -0.012 | [10] 0.039 | [11] 0.036 | [12] -0.076 | [13] -0.01 | [14] 0.03 | [15] 0.002 | [16] -0.016 | [17] 0.145 | [18] -0.007 | [19] -0.012 | [20] -0.025

MTHFSD isoform 3 (UniProt Q2M296)
inactive: [1] 0.01 | [2] 0.112 | [3] 0.04 | [5] 0.021 | [6] 0.158 | [7] 0.112 | [8] 0.013 | [9] 0.059 | [10] -0.095 | [11] -0.075 | [12] 0.027 | [13] -0.011 | [14] 0.05 | [15] 0.024 | [18] 0.004 | [19] 0.013 | [20] -0.091

MTMR6 (UniProt Q9Y217)
inactive: [1] 0.038 | [2] 0.012 | [3] 0.018 | [4] 0.006 | [5] -0.024 | [6] -0.055 | [7] 0.217 | [8] -0.08 | [9] 0.024 | [10] 0.087 | [11] -0.034 | [12] -0.019 | [13] 0 | [14] -0.042 | [15] -0.047 | [16] 0.028 | [17] -0.092 | [18] 0.022 | [19] 0.004 | [20] -0.053

MRPL41 (UniProt Q8IXM3)
inactive: [1] 0.018 | [2] 0.023 | [3] -0.04 | [4] 0.066 | [5] -0.042 | [6] -0.015 | [7] 0.035 | [8] -0.037 | [9] 0.041 | [10] -0.022 | [11] 0.096 | [12] -0.023 | [13] 0.038 | [14] 0.038 | [15] 0.002 | [16] -0.004 | [17] 0.126 | [18] -0.013 | [19] 0.028 | [20] -0.021

MTDH (UniProt Q86UE4)
inactive: [1] 0.009 | [2] -0.001 | [3] -0.028 | [4] 0.029 | [5] 0.017 | [6] -0.022 | [7] -0.043 | [8] 0.049 | [9] -0.001 | [10] 0.013 | [11] -0.027 | [12] 0.052 | [13] -0.006 | [14] 0.015 | [15] 0.035 | [16] -0.015 | [17] 0.009 | [18] -0.013 | [19] 0.009 | [20] -0.019

MRPS36 (UniProt P82909)
inactive: [1] -0.009 | [2] 0.024 | [3] -0.082 | [4] 0.056 | [5] -0.028 | [6] -0.044 | [7] -0.199 | [8] 0.102 | [9] 0.019 | [10] 0.039 | [11] -0.023 | [12] 0.087 | [13] -0.01 | [14] 0.027 | [15] 0.152 | [16] 0.009 | [17] -0.017 | [18] -0.106 | [19] -0.018 | [20] -0.023
